Experimental findings from PMC5413510, “An Analysis of Trafficking Receptors Shows that CD44 and P-Selectin Glycoprotein Ligand-1 Collectively Control the Migration of Activated Human T-Cells” (Frontiers in Immunology, 2017) are described below.

The chains behind the UniProt entries cited, without tags or fusion partners. Where a name states a change or a piece, a line headed by the entry shows the natural chain unless it says otherwise. A line that says so, or that is headed by a name, gives the form on record, which may keep a tag or linker.
CD44s (standard form of CD44) from activated human T-cells (human (endogenous in activated T-cells)) (P16070, form named): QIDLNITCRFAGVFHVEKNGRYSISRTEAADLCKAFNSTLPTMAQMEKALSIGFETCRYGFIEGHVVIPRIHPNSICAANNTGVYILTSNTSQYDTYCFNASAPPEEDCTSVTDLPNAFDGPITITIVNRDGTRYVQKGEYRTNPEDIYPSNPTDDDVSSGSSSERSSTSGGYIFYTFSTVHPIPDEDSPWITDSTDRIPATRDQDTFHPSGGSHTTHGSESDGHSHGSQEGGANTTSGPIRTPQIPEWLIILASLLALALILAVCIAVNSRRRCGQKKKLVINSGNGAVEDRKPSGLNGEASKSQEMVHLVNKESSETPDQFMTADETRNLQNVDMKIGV

No constants are given. Whether binding was seen depends on the method and setting. Some entries that bind do so weakly or less than the wild type. For some assays here: Sequences can lack the tags named with a protein.

The target of assay [1] is T1, P-selectin glycoprotein ligand-1 (PSGL-1) from activated human T-cells (human (endogenous in activated T-cells)) (UniProt Q14242).
T1 sequence (chain, O-glycans): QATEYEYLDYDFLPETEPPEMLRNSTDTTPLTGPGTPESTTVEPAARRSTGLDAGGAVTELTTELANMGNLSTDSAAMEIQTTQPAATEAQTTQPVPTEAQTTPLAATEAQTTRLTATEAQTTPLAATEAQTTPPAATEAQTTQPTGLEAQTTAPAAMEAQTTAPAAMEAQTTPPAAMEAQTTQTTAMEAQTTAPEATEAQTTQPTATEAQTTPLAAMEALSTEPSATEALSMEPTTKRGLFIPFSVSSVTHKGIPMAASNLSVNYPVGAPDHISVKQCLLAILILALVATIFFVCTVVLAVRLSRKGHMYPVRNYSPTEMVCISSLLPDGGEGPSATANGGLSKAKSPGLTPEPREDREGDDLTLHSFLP
Kind of assay: blot rolling assay; immuno-purified CD44/HCELL or PSGL-1 resolved by SDS-PAGE and blotted; CHO-E cells perfused over the blot in HBSS, 2 mM Ca2+, 10% glycerol at 0.5 dyn cm^-2; 5 mM EDTA as control of specificity; only the target purified.

For assay [2], the target named is T1, P-selectin glycoprotein ligand-1 (PSGL-1) from activated human T-cells (human (endogenous in activated T-cells)). The assay is described as follows: SPR; BIAcore CM5 chip; CD44 and PSGL-1 captured from activated T-cell lysate by immobilised mAbs Hermes-3 and KPL-1; 100 nM E-Ig injected at 20 ul/min with 1 mM Ca2+ or 5 mM EDTA at 50 mM NaCl; isotype control subtracted; both purified. A general note: SPR reads the build-up and loss of mass on a sensor chip optically.

The target is the same in assay [3]. Kind of assay: far-Western, overlay or dot blot; ligand immuno-purified from T-cells, resolved for Western blot and stained with E-Ig; some samples treated beforehand with PNGaseF, sialidase or OSGE; CD44v6, CD44v10 and CD44s purified one after the other from lysates at 24 h, 48 h and Day 5 (binding of CD44s first detected at 48 h, stronger at Day 5); both purified.

Assay [4] addresses CD44s (standard form of CD44) from activated human T-cells (human (endogenous in activated T-cells)) (UniProt P16070). Described as above.
Assay [5] addresses T2, P-selectin glycoprotein ligand-1 (PSGL-1) from T-cells of psoriatic patients (human (endogenous in T-cells of psoriatic patients)) (UniProt Q14242).
T2 sequence: T1 sequence (chain, O-glycans)
The assay is described as above.

B1: E-selectin on CHO cells expressing E-selectin (CHO-E) (receptor, UniProt P16581 22-610)
chain: WSYNTSTEAMTYDEASAYCQQRYTHLVAIQNKEEIEYLNSILSYSPSYYWIGIRKVNNVWVWVGTQKPLTEEAKNWAPGEPNNRQKDEDCVEIYIKREKDVGMWNDERCSKKKLALCYTAACTNTSCSGHGECVETINNYTCKCDPGFSGLKCEQIVNCTALESPEHGSLVCSHPLGNFSYNSSCSISCDRGYLPSSMETMQCMSSGEWSAPIPACNVVECDAVTNPANGFVECFQNPGSFPWNTTCTFDCEEGFELMGAQSLQCTSSGNWDNEKPTCKAVTCRAVRQPQNGSVRCSHSPAGEFTFKSSCNFTCEEGFMLQGPAQVECTTQGQWTQQIPVCEAFQCTALSNPERGYMNCLPSASGSFRYGSSCEFSCEQGFVLKGSKRLQCGPTGEWDNEKPTCEAVRCDAVHQPPKGLVRCAHSPIGEFTYKSSCAFSCEEGFELHGSTQLECTSQGQWTEEVPSCQVVKCSSLAVPGKINMSCSGEPVFGTVCKFACPEGWTLNGSAARTCGATGHWSGLLPTCEAPTESNIPLVAGLSAAGLSLLTLAPFLLWLRKCLRKAKKFVPASSCQSLESDGSYQKPSYIL
Take B1: the binding result in assay [1] was “binds”.

B2: recombinant mouse E-selectin/CD62E Fc chimera (E-Ig) (Fc fusion, UniProt Q00690 22-557, looked up)
chain: WYYNASSELMTYDEASAYCQRDYTHLVAIQNKEEINYLNSNLKHSPSYYWIGIRKVNNVWIWVGTGKPLTEEAQNWAPGEPNNKQRNEDCVEIYIQRTKDSGMWNDERCNKKKLALCYTASCTNASCSGHGECIETINSYTCKCHPGFLGPNCEQAVTCKPQEHPDYGSLNCSHPFGPFSYNSSCSFGCKRGYLPSSMETTVRCTSSGEWSAPAPACHVVECEALTHPAHGIRKCSSNPGSYPWNTTCTFDCVEGYRRVGAQNLQCTSSGIWDNETPSCKAVTCDAIPQPQNGFVSCSHSTAGELAFKSSCNFTCEQSFTLQGPAQVECSAQGQWTPQIPVCKAVQCEALSAPQQGNMKCLPSASGPFQNGSSCEFSCEEGFELKGSRRLQCGPRGEWDSKKPTCSAVKCDDVPRPQNGVMECAHATTGEFTYKSSCAFQCNEGFSLHGSAQLECTSQGKWTQEVPSCQVVQCPSLDVPGKMNMSCSGTAVFGTVCEFTCPDDWTLNGSAVLTCGATGRWSGMPPTCEAPVSPTRP
notes: E-selectin (CD62E), mouse; Mouse is named only in the flow cytometry methods; also called E-selectin-hIg chimera; recombinant E-selectin–Ig chimera; source: bought: R&D
Take B2: the binding result in assay [2], in assay [3], in assay [4] and in assay [5] was “binds” in each case.
